Among all 360,000 compounds or so, about 7,500 (2.1%) were called active. Inconclusive results, whose numbers are uncertain, are shown with a selection of clear calls. Calls come from the whole dose curve; as a rule, active = well fitted inhibition curve with a large enough effect; inconclusive = small, poorly fitted or top-dose-only effect, or effect the other way; inactive = flat fitted curve, though single readings scatter. A potency beside an inconclusive call is a rough fit, not a confirmed value.
Experiment: Nrf2 qHTS screen for inhibitors; note: nearly all actives have a fitted effect of over 60% in size
Conditions: A549 ARE-Fluc reporter, luciferase luminescence, 18-24 h; activity change, negative = inhibition: at 46 µM (top of the series)
Outline: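 Concentration-response testing used A549 ARE_Fluc cells at 5000 cells/well. Following an 18-24 h compound incubation, viability was read by fluorescence (Ex 405/Em 525) and luciferase output by luminescence.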
For `COC(=O)c1sc(-c2cccs2)cc1N`, the “activity change, negative = inhibition” value was inactive: 32.3%.
With `Nc1c(-c2nc(-c3ccc(Cl)cc3)no2)nnn1-c1ccc(C(F)(F)F)c(Cl)c1` the Potency was inconclusive: 0.58 µM [activator, full curve, poor fit].
With `COc1cc(NC(=O)c2cc(C3CC3)nc3c2c(C)nn3-c2ccc(C)cc2)cc(OC)c1` the Potency was inconclusive: 29.1 µM [falling, single point].
In the case of `CC(C)(C)C1CCC2(CC1)C(C#N)=C(SCC(=O)NC1CCCCC1)NC(=O)C2C#N` (stereo not drawn), the Potency is reported as inconclusive: 23.1 µM [falling, single point].
With `CCN=C1NN=C(c2cc(C)n(CCc3ccccc3)c2C)CS1` the Potency was inconclusive: 25.9 µM [activator, single point].
In the case of `O=C(NCc1cccs1)c1ccc(Cl)c(S(=O)(=O)N2CCCC2)c1`, the Potency is reported as inconclusive: 29.1 µM [falling, single point].
With `Cc1ccc2nc(N3CCN(C(=O)c4ccc(F)cc4)CC3)c(C#N)cc2c1` the “activity change, negative = inhibition” value was inactive: -16.3%.
In the case of `COc1ccc(OC)c(CCNC(=O)c2nn(C)c3c2CS(=O)(=O)c2ccccc2-3)c1`, the Potency is reported as inconclusive: 13 µM [falling, partial curve, poor fit].
In the case of `N#Cc1c(-n2ncnc2-c2cccc(Cl)c2)sc2c1CCCCC2`, the Potency is reported as inconclusive: 0.411 µM [activator, full curve, poor fit].
For `COc1cccc(C(=O)Nc2nc(-c3nnn(-c4cc(C)ccc4C)c3C)ns2)c1`, the Potency was inconclusive: 6.51 µM [falling, full curve, poor fit].
For `COC(=O)c1c(NC(=O)C(C)C)sc2c1C(C(=O)OC)CC2` (stereo not drawn), the “activity change, negative = inhibition” value was inactive: 7.84%.
For `Cn1c(=O)c2c(nc(CN3CCN(CCO)CC3)n2Cc2ccccc2Cl)n(C)c1=O`, the Potency was inconclusive: 29.1 µM [falling, single point].
With `O=C(NCCS(=O)(=O)N1CCN(c2cccc(Cl)c2)CC1)c1ccc2c(c1)OCO2` the Potency was inconclusive: 3.66 µM [activator, partial curve, poor fit].
With `Nc1cc(N2CCOCC2)c(Cl)cc1[N+](=O)[O-]` the “activity change, negative = inhibition” value was inactive: -5.48%.
With `O=C1c2cccc3cccc(c23)C(=O)N1CCCc1n[nH]c(=S)n1-c1ccccc1` the Potency was inconclusive: 5.17 µM [falling, partial curve, poor fit].
With `Brc1ccc(-c2csc(N/N=C/c3cccnc3)n2)cc1` the Potency was inconclusive: 1.64 µM [falling, partial curve, poor fit].
With `CC(=O)COc1ccc2c(c1C)O/C(=C\c1ccco1)C2=O` the “activity change, negative = inhibition” value was inactive: 0.855%.
For `CC(C)C(NS(=O)(=O)c1cccs1)C(=O)Nc1nc(C(C)(C)C)cs1` (stereo not drawn), the Potency was active: 18.4 µM.

Source: PubChem BioAssay AID504444 (National Center for Advancing Translational Sciences (NCATS), 2011)
% is set by controls: 0 for no effect and ±100 for the full control effect; potency is the fitted concentration of half-maximal effect.
